From US20060217321A1, “Compositions to improve tic disorders” (priority 2005, published 2006)
For at least one compound, name, drawing or mass did not settle the structure.

System: tic disorders
Assay: Test Case 1: a case with improved tic disorder
Format: in vivo, human
Conditions: patient, patient history before theanine
Text: <Test Case 1> A Case with Improved Tic Disorder
Patient: (Sixth grade elementary school student);
Chief complaint: shaking hands and head
History: Since being elected as temporary class representative of the fourth grade class of elementary school, the patient had blinking eyes and subsequently shook their face and shoulders; thus, they visited a nearby hospital and received diazepam. […] In the following year, around the time of moving to Osaka, the patient suffered a relapse of symptoms of shaking their face and shoulders again and thus visited the pediatric department of O hospital and received haloperidol.

With O=c1[nH]c2ccccc2n1C1CCN(CCCC(c2ccc(F)cc2)c2ccc(F)cc2)CC1 [pimozide] the “effect of earlier drug therapy on tic symptoms (history)” value was “got relief in 3 months”.
